From the supplement of paper PMC7661543
± gives the standard deviation of the averaged measurements. The effect of the compound repeats well; differences between the knockouts mostly do not.

What was measured:
Test in all cases: relative cell number vs DMSO control (72 h) (% of DMSO); higher = less growth inhibition (more cells)
MDA-MB-231 = system: MDA-MB-231
Procedure: (§1)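 QMAP-Seq: a pool of 5 breast cancer cell lines (ZR-75-1, SKBR3, HCC-38, MDA-MB-231, BT-20), each carrying 12 doxycycline-inducible Cas9 sgRNA perturbations (11 knockouts plus non-targeting sgNT), was treated with compounds for 72 h at four 10-fold doses (10 nM-10 uM or 1 nM-1 uM range). Barcodes were amplified and sequenced, and cell number was interpolated from 293T spike-in standard curves. The result is expressed as % of the median of DMSO wells. Two biological replicates.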

ZR-75-1 = system: ZR-75-1
Procedure: as §1

SKBR3 = system: SKBR3
Procedure: as §1

COc1cc(Nc2ncc3c(n2)-c2ccc(Cl)cc2C(c2c(F)cccc2OC)=NC3)ccc1C(=O)O [Alisertib]
relative cell number
Conditions | MDA-MB-231 | SKBR3 | ZR-75-1
sgRNA knockout: sgATF3, 10 nM | 98.7 ± 15 | 120 ± 4.8 | 92.9 ± 10
sgRNA knockout: sgATF3, 100 nM | 70.4 ± 6.9 | 79.4 ± 10 | 42.8 ± 6.9
sgRNA knockout: sgATF3, 1000 nM | 69.4 ± 18 | 85.4 ± 22 | 65.4 ± 11
sgRNA knockout: sgATF3, 10000 nM | 44.8 ± 13 | 89.6 ± 9.2 | 64.2 ± 6.3
sgRNA knockout: sgATF4, 10 nM | 94.1 ± 32 | 116 ± 3.9 | 102 ± 38
sgRNA knockout: sgATF4, 100 nM | 82.4 ± 1.7 | 71.96 ± 0.31 | 47.7 ± 4.3
sgRNA knockout: sgATF4, 1000 nM | 72.3 ± 16 | 86.3 ± 14 | 69 ± 24
sgRNA knockout: sgATF4, 10000 nM | 42.7 ± 15 | 69.5 ± 2.6 | 61.3 ± 5.7
sgRNA knockout: sgATF6, 10 nM | 71.5 ± 7.3 | 105 ± 7 | 99.3 ± 15
sgRNA knockout: sgATF6, 100 nM | 55.5 ± 3.4 | 90.6 ± 3.1 | 26.7 ± 4.7
sgRNA knockout: sgATF6, 1000 nM | 65.7 ± 26 | 89.3 ± 10 | 57.4 ± 21
sgRNA knockout: sgATF6, 10000 nM | 42.201 ± 0.032 | 72.1 ± 4.5 | 46.2 ± 35
sgRNA knockout: sgATG7, 10 nM | 93.904 ± 0.085 | 94 ± 4.2 | 89.7 ± 24
sgRNA knockout: sgATG7, 100 nM | 77.4 ± 30 | 64.6 ± 7.6 | 35.7 ± 11
sgRNA knockout: sgATG7, 1000 nM | 51.7 ± 7.9 | 102.95 ± 0.066 | 57.8 ± 11
sgRNA knockout: sgATG7, 10000 nM | 45.8 ± 3 | 70.1 ± 21 | 37.7 ± 9.1
sgRNA knockout: sgERN1, 10 nM | 109 ± 7.8 | 138.4 ± 1.2 | 84.86 ± 0.72
sgRNA knockout: sgERN1, 100 nM | 57.3 ± 8.4 | 75.3 ± 14 | 46.6 ± 5.7
sgRNA knockout: sgERN1, 1000 nM | 62.8 ± 9.5 | 88.1 ± 18 | 51.9 ± 1.1
sgRNA knockout: sgERN1, 10000 nM | 44.4 ± 10 | 78.5 ± 11 | 39.8 ± 19
sgRNA knockout: sgHSF1, 10 nM | 116 ± 8.1 | 94.8 ± 6.1 | –
sgRNA knockout: sgHSF1, 100 nM | 68.8 ± 12 | 84.45 ± 0.64 | –
sgRNA knockout: sgHSF1, 1000 nM | 66.5 ± 5.8 | 77.4 ± 24 | –
sgRNA knockout: sgHSF1, 10000 nM | 41.9 ± 0.59 | 78.5 ± 3.4 | –
sgRNA knockout: sgHSF2, 10 nM | 81.8 ± 25 | 107 ± 1.5 | 97.1 ± 27
sgRNA knockout: sgHSF2, 100 nM | 82.5 ± 6.3 | 69.9 ± 8.7 | 51.1 ± 7.1
sgRNA knockout: sgHSF2, 1000 nM | 76.3 ± 15 | 88.4 ± 6.2 | 45.4 ± 11
sgRNA knockout: sgHSF2, 10000 nM | 46 ± 2 | 66 ± 1.4 | 51.7 ± 1.8
sgRNA knockout: sgKEAP1, 10 nM | 87 ± 9.8 | 102 ± 14 | –
sgRNA knockout: sgKEAP1, 100 nM | 70.6 ± 15 | 72.7 ± 11 | –
sgRNA knockout: sgKEAP1, 1000 nM | 58.7 ± 3.9 | 76.6 ± 1.6 | –
sgRNA knockout: sgKEAP1, 10000 nM | 46 ± 5.2 | 73.3 ± 1.7 | –
sgRNA knockout: sgNFE2L2, 10 nM | 101 ± 22 | 91.4 ± 13 | 95.1 ± 16
sgRNA knockout: sgNFE2L2, 100 nM | 56.9 ± 12 | 76.5 ± 29 | 39.2 ± 2.7
sgRNA knockout: sgNFE2L2, 1000 nM | 61.4 ± 6.3 | 75 ± 13 | 39.2 ± 4.7
sgRNA knockout: sgNFE2L2, 10000 nM | 43.9 ± 3.4 | 69.3 ± 4 | 54.5 ± 8.5
sgRNA knockout: sgSLC35F2, 10 nM | 88.8 ± 10 | 110 ± 35 | 93 ± 38
sgRNA knockout: sgSLC35F2, 100 nM | 63.7 ± 5.1 | 78 ± 3.6 | 31 ± 1.9
sgRNA knockout: sgSLC35F2, 1000 nM | 81.1 ± 29 | 90.6 ± 20 | 51 ± 3.1
sgRNA knockout: sgSLC35F2, 10000 nM | 43.3 ± 6.7 | 72.9 ± 7.5 | 59.3 ± 22
sgRNA knockout: sgXBP1, 10 nM | 91.75 ± 0.29 | 121 ± 25 | 90.8 ± 8.1
sgRNA knockout: sgXBP1, 100 nM | 81.6 ± 11 | 70.3 ± 2.9 | 36.1 ± 3.4
sgRNA knockout: sgXBP1, 1000 nM | 62.2 ± 7.4 | 102 ± 15 | 37.8 ± 4.3
sgRNA knockout: sgXBP1, 10000 nM | 38.4 ± 5.1 | 79.714 ± 0.03 | 51.3 ± 1.4

CC(=O)c1c(C)c2cnc(Nc3ccc(N4CCNCC4)cn3)nc2n(C2CCCC2)c1=O [Palbociclib]
relative cell number
Conditions | MDA-MB-231 | SKBR3 | ZR-75-1
sgRNA knockout: sgATF3, 10 nM | 92.4 ± 22 | 102 ± 14 | 89.5 ± 6.2
sgRNA knockout: sgATF3, 100 nM | 42.2 ± 3.7 | 61.4 ± 28 | 41.6 ± 20
sgRNA knockout: sgATF3, 1000 nM | 31.6 ± 5.1 | 50.1 ± 3 | 39.7 ± 6.8
sgRNA knockout: sgATF3, 10000 nM | 26.9 ± 4.2 | 31.3 ± 18 | 28.7 ± 7
sgRNA knockout: sgATF4, 10 nM | 78.5 ± 29 | 81.5 ± 13 | 79.1 ± 53
sgRNA knockout: sgATF4, 100 nM | 40 ± 15 | 56.6 ± 24 | 44.7 ± 21
sgRNA knockout: sgATF4, 1000 nM | 32.9 ± 5.9 | 52.7 ± 6.4 | 39.3 ± 12
sgRNA knockout: sgATF4, 10000 nM | 25.6 ± 0.28 | 34.6 ± 1.4 | 33.1 ± 4
sgRNA knockout: sgATF6, 10 nM | 73.6 ± 2.3 | 95.4 ± 25 | 83.4 ± 13
sgRNA knockout: sgATF6, 100 nM | 44 ± 19 | 57.3 ± 12 | 62 ± 29
sgRNA knockout: sgATF6, 1000 nM | 29.7 ± 0.81 | 50.6 ± 6 | 35.4 ± 27
sgRNA knockout: sgATF6, 10000 nM | 16.9 ± 2.9 | 31.1 ± 12 | 38 ± 7.7
sgRNA knockout: sgATG7, 10 nM | 99.8 ± 8.7 | 67.8 ± 4.9 | 118 ± 16
sgRNA knockout: sgATG7, 100 nM | 51.9 ± 12 | 78.8 ± 45 | 33.9 ± 6.1
sgRNA knockout: sgATG7, 1000 nM | 26.5 ± 3.7 | 59.3 ± 11 | 36 ± 18
sgRNA knockout: sgATG7, 10000 nM | 18 ± 2.7 | 37.2 ± 6.7 | 30.6 ± 6.7
sgRNA knockout: sgERN1, 10 nM | 74.9 ± 8.8 | 90 ± 27 | 71.46 ± 0.48
sgRNA knockout: sgERN1, 100 nM | 42 ± 18 | 65.8 ± 20 | 48.1 ± 5.4
sgRNA knockout: sgERN1, 1000 nM | 36 ± 16 | 45 ± 3.6 | 33.78 ± 0.26
sgRNA knockout: sgERN1, 10000 nM | 23.5 ± 8.8 | 42.9 ± 14 | 27.8 ± 8
sgRNA knockout: sgHSF1, 10 nM | 87 ± 7.1 | 91.4 ± 5.8 | –
sgRNA knockout: sgHSF1, 100 nM | 36.1 ± 2.9 | 48.1 ± 20 | –
sgRNA knockout: sgHSF1, 1000 nM | 33.6 ± 3.4 | 40.8 ± 0.54 | –
sgRNA knockout: sgHSF1, 10000 nM | 26.3 ± 8 | 34.8 ± 1.7 | –
sgRNA knockout: sgHSF2, 10 nM | 92.2 ± 27 | 84.78 ± 0.48 | 94.7 ± 28
sgRNA knockout: sgHSF2, 100 nM | 52.7 ± 14 | 46.5 ± 10 | 43.5 ± 18
sgRNA knockout: sgHSF2, 1000 nM | 27.1 ± 3.5 | 48.7 ± 2.8 | 40.1 ± 5.9
sgRNA knockout: sgHSF2, 10000 nM | 24.1 ± 9.1 | 32.5 ± 3.3 | 36.3 ± 0.83
sgRNA knockout: sgKEAP1, 10 nM | 74.8 ± 9 | 71.4 ± 7 | –
sgRNA knockout: sgKEAP1, 100 nM | 53.06 ± 0.26 | 53.8 ± 20 | –
sgRNA knockout: sgKEAP1, 1000 nM | 36.3 ± 3 | 66 ± 2 | –
sgRNA knockout: sgKEAP1, 10000 nM | 21.2 ± 4.8 | 31.1 ± 8.7 | –
sgRNA knockout: sgNFE2L2, 10 nM | 79.8 ± 1.5 | 84.4 ± 3.7 | 105 ± 15
sgRNA knockout: sgNFE2L2, 100 nM | 45.1 ± 11 | 46.8 ± 8.8 | 59.1 ± 22
sgRNA knockout: sgNFE2L2, 1000 nM | 43.5 ± 16 | 47 ± 6.4 | 33.5 ± 17
sgRNA knockout: sgNFE2L2, 10000 nM | 22.9 ± 1.2 | 35.9 ± 7.6 | 29 ± 0.93
sgRNA knockout: sgSLC35F2, 10 nM | 80 ± 25 | 91.2 ± 6.7 | 53.9 ± 15
sgRNA knockout: sgSLC35F2, 100 nM | 35.3 ± 14 | 45.1 ± 3.6 | 51.6 ± 35
sgRNA knockout: sgSLC35F2, 1000 nM | 35.2 ± 3.8 | 47.2 ± 14 | 33.5 ± 13
sgRNA knockout: sgSLC35F2, 10000 nM | 14.8 ± 3.2 | 35.8 ± 2.2 | 23.2 ± 0.98
sgRNA knockout: sgXBP1, 10 nM | 79.6 ± 3 | 87.6 ± 16 | 99.8 ± 31
sgRNA knockout: sgXBP1, 100 nM | 37 ± 19 | 51.5 ± 24 | 46.5 ± 13
sgRNA knockout: sgXBP1, 1000 nM | 27.5 ± 1.4 | 47.2 ± 5 | 33.2 ± 5.8
sgRNA knockout: sgXBP1, 10000 nM | 19.5 ± 0.1 | 34.8 ± 2.2 | 24.5 ± 0.76
